Each structure is given as a SMILES string.

Test [1] has as its system NASH. Briefly: L-DOPA plus pantethine with or without curcumin in high fat high fructose diet mice, Study 2 (Example 4). As to conditions: vehicle value assigned 1.0 (maximum score); 3 weeks treatment. It counts as in vivo. An excerpt:
After 3 weeks on the test diet, animals were sacrificed for analyses of body weight, body fat, blood glucose, and liver physiology.

For test [2], the system named is NASH. The settings on record: vehicle set to 1.0; diet 66 days, then 32 days treatment.

`CC(C)(CO)[C@@H](O)C(=O)NCCC(=O)NCCSSCCNC(=O)CCNC(=O)[C@H](O)C(C)(C)CO` [pantethine]: the “NASH propensity score (liver weight x body weight x body fat x blood glucose level)” value in the test on NASH [1] came to 0.18. Besides, in the test with NASH [2], the “NASH propensity score (liver triglyceride level x body weight x body fat x blood glucose level)” value came to 0.32.
